Values quoted from earlier work as cited in patent US7772273B2 (LifeCycle Pharma A/S, priority 2006, dated 2010).

Experiments:
[1] = At pH>6

Lowering of plasma atorvastatin concentrations (Cmax and AUC) (evening drug administration compared with morning): approximately 30%
Decrease of extent of drug absorption by food, as assessed by AUC (with food): ~9%
Decrease of rate of drug absorption by food, as assessed by Cmax (with food): approximately 25%
Hydroxy acid form-lactone form equilibrium [1]: greatly favors the hydroxy acid form
SMILES: CC(C)c1c(C(=O)Nc2ccccc2)c(-c2ccccc2)c(-c2ccc(F)cc2)n1CCC(O)CC(O)CC(=O)O (stereo not drawn) [atorvastatin, 2-(4-fluorophenyl)-β,δ-dihydroxy-5-(1-methylethyl)-3-phenyl-4-[(phenylamino)carbonyl]-1H-pyrrole-1-heptanoic acid]
